Results deposited as PubChem BioAssay AID652243 (Drosophila RNAi Screening Center, 2013).

Purpose: 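Fly genes required for human androgen receptor driven transcription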 (primary screen)
Cell system: Drosophila S2R+ cells
Reagent: long dsRNA against Drosophila genes
Timing: 72 h (48 h, then 24 h hormone)
Treatment: synthetic androgen R1881 at 10 nM for 24 h
Detection: 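Per-well raw luminescence of the androgen-driven firefly reporter and of the Renilla control, two replicates each, without normalisation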
Reading the numbers: firefly reporter light: higher = more light from androgen-responsive reporter; Renilla control light: higher = more constitutive control signal (cell number, transfection)
Rule for the call: 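Hit when the log firefly-to-Renilla ratio dropped or increased by a fixed fold versus the mean of GFP or LacZ controls across duplicate plates; lowering cut given as 1.5 and as 3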
Meaning of the calls: active = hit: reporter lowered or raised; inactive = no hit
The deposit covers about 24,000 reagents; below is a random part of those with a known target gene and a result. Over the whole deposit, 246 (1%) were called active. 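Plates not normalised; calls are printed but the firefly/Renilla ratio behind them is not deposited; fold cut for lowering reported inconsistently.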 The raw values are shown without normalisation. The numbers tell different reagents against one gene apart. A plus sign joins genes that one reagent is predicted to hit. Not given: the amount of reagent.

The first 2 entries, ahead of the listing:
| target | dsRNA no. | firefly reporter light, replicate 1 | firefly reporter light, replicate 2 | Renilla control light, replicate 1 | Renilla control light, replicate 2 | call |
| --- | --- | --- | --- | --- | --- | --- |
| RpL27A (Ribosomal protein L27A) | 1 | 1.05e5 | 1.25e5 | 7.99e5 | 1.05e6 | inactive |
| RpL27A (Ribosomal protein L27A) | 2 | 1.75e5 | 3.50e5 | 4.13e5 | 6.44e5 | inactive |

The list itself, repeating the preview:
| target | dsRNA no. | firefly reporter light, replicate 1 | firefly reporter light, replicate 2 | Renilla control light, replicate 1 | Renilla control light, replicate 2 | call |
| --- | --- | --- | --- | --- | --- | --- |
| RpL27A (Ribosomal protein L27A) | 1 | 1.05e5 | 1.25e5 | 7.99e5 | 1.05e6 | inactive |
| RpL27A (Ribosomal protein L27A) | 2 | 1.75e5 | 3.50e5 | 4.13e5 | 6.44e5 | inactive |
| Ldsdh1 (Lipid droplet subset dehydrogenase 1) | 1 | 5.92e5 | 5.25e5 | 4.67e6 | 4.21e6 | inactive |
| Ldsdh1 (Lipid droplet subset dehydrogenase 1) | 2 | 2.84e5 | 2.61e5 | 7.10e5 | 7.25e5 | inactive |
| Top2 (Topoisomerase 2) | 1 | 1.60e5 | 1.32e5 | 1.21e6 | 1.53e6 | inactive |
| CG7255 | 1 | 6.84e5 | 1.21e6 | 1.18e6 | 1.47e6 | inactive |
| CG31999 | 1 | 2.74e5 | 3.74e5 | 2.44e6 | 1.83e6 | inactive |
| CG31999 | 2 | 2.69e5 | 2.22e5 | 5.11e6 | 3.20e6 | inactive |
| Jig | 1 | 1.76e5 | 1.65e5 | 2.45e6 | 3.26e6 | inactive |
| Acp36DE (Accessory gland protein 36DE) | 1 | 1.67e5 | 1.90e5 | 1.84e6 | 2.07e6 | inactive |
| Mgat2 | 1 | 79779 | 61067 | 7.81e5 | 6.13e5 | inactive |
| Mgat2 | 2 | 6.64e5 | 4.22e5 | 1.36e6 | 9.28e5 | inactive |
| Btk (Bruton tyrosine kinase) | 1 | 2.51e5 | 81016 | 2.21e6 | 1.18e6 | inactive |
| Btk (Bruton tyrosine kinase) | 2 | 7.01e5 | 7.45e5 | 3.63e6 | 2.78e6 | active |
| Btk (Bruton tyrosine kinase) | 3 | 4.88e5 | 9.26e5 | 8.10e5 | 1.80e6 | inactive |
| Btk (Bruton tyrosine kinase) | 4 | – | – | – | – | inactive |
| CG31533 | 1 | 1.49e5 | 76101 | 1.77e5 | 1.87e5 | inactive |
| cype (cyclope) | 1 | 87424 | 69589 | 7.06e5 | 7.86e5 | inactive |
| Acsx3 (Acyl-CoA synthetase X3) | 1 | 85709 | 1.22e5 | 5.32e5 | 6.19e5 | inactive |
| CG3792 | 1 | 2.02e5 | 2.23e5 | 1.98e6 | 1.39e6 | inactive |
| CG33695 + cana | 1 | 1.81e5 | 1.71e5 | 3.99e5 | 3.43e5 | inactive |
| CG33695 + cana | 2 | 1.68e5 | 1.04e5 | 1.12e6 | 1.20e6 | inactive |
| CG2519 | 1 | 18585 | 38815 | 1.90e5 | 2.64e5 | inactive |
| kraken | 1 | 1.31e5 | 81663 | 8.71e5 | 7.14e5 | inactive |
| kraken | 2 | 3.62e5 | 4.87e5 | 1.51e6 | 1.28e6 | inactive |
| Cpsf73 (Cleavage and polyadenylation specificity factor 73) | 1 | 3.55e5 | 2.70e5 | 4.75e6 | 3.21e6 | inactive |
| Cpsf73 (Cleavage and polyadenylation specificity factor 73) | 2 | 8.21e5 | 8.26e5 | 2.23e6 | 2.00e6 | inactive |
| CG15478 | 1 | 3.52e5 | 3.52e5 | 3.50e6 | 3.55e6 | inactive |
| CG15478 | 2 | 5.24e5 | 7.10e5 | 7.83e5 | 6.46e5 | inactive |
| Arp2 (Actin-related protein 2) | 1 | 4.33e5 | 4.96e5 | 2.33e6 | 2.47e6 | inactive |
| CG2794 | 1 | 1.66e5 | 2.06e5 | 8.16e5 | 1.00e6 | inactive |
| Tsp42Eh (Tetraspanin 42Eh) | 1 | 4.80e5 | 4.21e5 | 2.71e6 | 2.23e6 | inactive |
| CG17118 | 1 | 1.69e5 | 1.45e5 | 9.33e5 | 1.03e6 | inactive |
| dunk (disrupted underground network) | 1 | 8.16e5 | 6.18e5 | 1.19e6 | 1.58e6 | inactive |
| dunk (disrupted underground network) | 2 | 1.06e6 | 1.17e6 | 1.42e6 | 1.68e6 | inactive |
| polybromo | 1 | 42904 | 77869 | 4.13e5 | 4.31e5 | inactive |
| CG14410 | 1 | 5.43e5 | 6.22e5 | 3.12e6 | 2.81e6 | inactive |
| Neurl4 (Neuralized E3 ubiquitin protein ligase 4) | 1 | 6.43e5 | 7.27e5 | 1.16e6 | 1.11e6 | inactive |
| sel (seele) | 1 | 4.11e5 | 4.15e5 | 2.23e6 | 2.07e6 | inactive |
| skl (sickle) | 1 | 2.22e5 | 2.35e5 | 1.74e6 | 2.37e6 | inactive |
| CG15570 | 1 | 2.44e5 | 3.66e5 | 2.41e6 | 2.21e6 | inactive |
| Pstk + CG14210 + Tim9b | 1 | 1.62e5 | 1.40e5 | 6.01e5 | 5.21e5 | inactive |
| Pstk + CG14210 + Tim9b | 2 | 3.93e5 | 4.41e5 | 9.64e5 | 8.68e5 | inactive |
| CR33319 (pseudo) | 1 | 1.46e5 | 1.61e5 | 3.21e5 | 4.30e5 | inactive |
| CG14903 | 1 | 1.92e5 | 1.44e5 | 2.48e6 | 2.54e6 | inactive |
| ND-19 (NADH dehydrogenase (ubiquinone) 19 kDa subunit) | 1 | 7.32e5 | 1.09e6 | 1.24e6 | 2.03e6 | inactive |
| ND-19 (NADH dehydrogenase (ubiquinone) 19 kDa subunit) | 2 | 2.08e5 | 1.97e5 | 5.11e5 | 5.85e5 | inactive |
| Nepl12 (Neprilysin-like 12) | 1 | 1.01e5 | 1.69e5 | 2.50e6 | 2.12e6 | inactive |
| Strn-Mlck (Stretchin-Mlck) | 1 | 1.70e6 | 1.28e6 | 3.33e6 | 2.21e6 | inactive |
| Strn-Mlck (Stretchin-Mlck) | 2 | – | – | – | – | inactive |
| Strn-Mlck (Stretchin-Mlck) | 3 | 98937 | 1.35e5 | 2.03e6 | 2.03e6 | inactive |
| Strn-Mlck (Stretchin-Mlck) | 4 | 33568 | 51215 | 6.42e5 | 6.42e5 | inactive |
| Strn-Mlck (Stretchin-Mlck) | 5 | – | – | – | – | inactive |
| SA1 (Stromalin 1) | 1 | 6.65e5 | 5.80e5 | 1.84e6 | 1.12e6 | inactive |
| SA1 (Stromalin 1) | 2 | 2.70e5 | 6.09e5 | 9.36e5 | 1.52e6 | inactive |
| Ehbp1 (Eps15 homology domain containing protein-binding protein 1) | 1 | 1.11e6 | 1.18e6 | 1.79e6 | 1.48e6 | inactive |
| Ehbp1 (Eps15 homology domain containing protein-binding protein 1) | 2 | 5.45e5 | 4.84e5 | 6.73e5 | 8.25e5 | inactive |
| CG8635 | 1 | 1.09e6 | 1.18e6 | 8.75e5 | 1.08e6 | active |
| CG8635 | 2 | 4.20e5 | 4.54e5 | 1.76e6 | 1.60e6 | active |
